Measurements as given in patent US9408910B2, “Anticancer prodrug activated by radiation or ultraviolet treatment and use thereof” (priority 2011, dated 2016).
Part of at least one peptide drawing is inferred or uncertain, most often the ends. Numbered stars: 1 amine (or outer) side, 2 acyl side, 3 side chain; on linkers, the order of the positions; unused ones are H or OH. Square brackets hold non-standard residues; d marks the D form. Peptide text beside a SMILES is read from it. * marks the point of attachment. Doxorubicin(3'-N) = COc1cccc2c1C(=O)c1c(O)c3c(c(O)c1C2=O)C[C@@](O)(C(=O)CO)C[C@@H]3O[C@H]1C[C@H](N*)[C@H](O)[C@H](C)O1; PABC = O=C(OCc1ccc(N[*:1])cc1)[*:2]

Columns and labels:
SCC 7 cells [1] = experiment: Cytotoxicity evaluation by in vitro MTT assay (Example 4); assay type: cell-based; settings: FIGS. 9a-9f versus 10a-10b
Method: Cytotoxicity was evaluated by in vitro MTT assay.
In detail, SCC 7 cells were radiated at a dose of 1 Gy, 5 Gy, or 10 Gy, and then the medium was removed after 2 h, 6 h, 12 h, 24 h, or 48 h. 20 μl of MTT solution per 100 μl of medium was treated, and then reacted at 30° C. for 1 hour in the dark. Thereafter, the cells were washed with PBS three times, and the medium was removed. 100 μl of DMSO was added to dissolve MTT formazan, followed by ELASA (test wavelength: 570 nm).
That is, total 6 experiments were carried out, and the results are shown FIGS. 9a to 9f. a) Radiation of cells at a radiation dose of 1 Gy, 5 Gy, 10 Gy, 15 Gy, 20 Gy, followed by MTT assay (radiation MTT assay), b) Treatment of cells with doxorubicin at a dose of 0.1 μM, 0.5 μM, 1 μM, and 5 μM, followed by MTT assay (Doxorubicin MIT assay), c) Treatment of cells with anticancer prodrug (KGDEVD-DOX) prepared in Example 1, followed by MTT assay (KGDEVD-DOX MTT assay), d) Treatment of cells with caspase-3-treated anticancer prodrug (KGDEVD-DOX) prepared in Example 1, followed by MIT assay (Cleaved Dox by Caspase-3 MIT assay), e) Treatment of cells with doxorubicin and radiation, followed by MIT assay (Doxorubicin+RT MTT assay), f) Treatment of cells with […], followed by MTT assay (KGDEVD-DOX+RT MTT assay). […]

SCC 7 cells [2] = experiment: In vitro cellular uptake imaged by fluorescence microscopy (Example 5); assay type: cell-based
[3] = test system: tumor mouse models transplanted with SCC 7 cell line; experiment: Anti-tumor therapeutic effect of the anticancer prodrug with radiation (Example 3); assay type: in vivo; settings: administered together with radiation (5 Gy, gamma knife); prodrug 3 mg/kg i.v. 24 hr after radiation and again after 2 days; FIG. 8

`COc1cccc2c1C(=O)c1c(O)c3c(c(O)c1C2=O)C[C@@](O)(C(=O)CO)C[C@@H]3O[C@H]1C[C@H](NC(=O)OCc2ccc(NC(=O)[C@H](CC(=O)O)NC(=O)[C@@H](NC(=O)[C@H](CCC(=O)O)NC(=O)[C@H](CC(=O)O)NC(=O)CNC(=O)[C@H](CCCCN)NC(C)=O)C(C)C)cc2)[C@H](O)[C@H](C)O1` [KGDEVD-DOX, Ac-Lys-Gly-Asp-Glu-Val-Asp-PABC-DOX] (Ac-KGDEVD[PABC]-{Doxorubicin(3'-N)}) was tested, and the “apoptotic effects on cancer cells (MTT assay), compared with AcDEVD-DOX” value (SCC 7 cells [1]) was “more rapid and effective apoptotic effects on cancer cells than AcDEVD-DOX”, the cellular uptake (SCC 7 cells [2]; FIGS. 12, 16) was “cytosolic uptake” and the “localisation after caspase-3 expression (treatment with caspase-3, radiation or UV)” value (SCC 7 cells [2]; FIGS. 13-15, listed as DEVD-Dox) was “translocation of Dox into the nucleus was observed”. The “localisation after caspase-3 expression (treatment with caspase-3, radiation or UV)” value (SCC 7 cells [2]; FIGS. 13-15, listed as KGDEVD-Dox) was “doxorubicin is translocated into the nucleus” and the “tumor size (tumor growth)” value [3] was “tumor was reduced in size”.
